Reference: the supplement of paper PMC7666118
This is one part of the list.

Protein sequences, listed by entry. Tags and fused reporters are not part of them. Lines headed by an entry give the natural chain unless they say otherwise; changes in a name come on top.
UniProt Q9UEE9, whole entry: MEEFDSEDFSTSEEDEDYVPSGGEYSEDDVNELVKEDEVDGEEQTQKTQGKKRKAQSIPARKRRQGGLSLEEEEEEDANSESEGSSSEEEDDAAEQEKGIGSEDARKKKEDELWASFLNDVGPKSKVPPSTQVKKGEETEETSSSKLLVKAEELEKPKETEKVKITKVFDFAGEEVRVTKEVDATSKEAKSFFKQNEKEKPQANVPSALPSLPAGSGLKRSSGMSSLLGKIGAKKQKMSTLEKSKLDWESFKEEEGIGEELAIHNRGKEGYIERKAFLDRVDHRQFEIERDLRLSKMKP
UniProt O75794: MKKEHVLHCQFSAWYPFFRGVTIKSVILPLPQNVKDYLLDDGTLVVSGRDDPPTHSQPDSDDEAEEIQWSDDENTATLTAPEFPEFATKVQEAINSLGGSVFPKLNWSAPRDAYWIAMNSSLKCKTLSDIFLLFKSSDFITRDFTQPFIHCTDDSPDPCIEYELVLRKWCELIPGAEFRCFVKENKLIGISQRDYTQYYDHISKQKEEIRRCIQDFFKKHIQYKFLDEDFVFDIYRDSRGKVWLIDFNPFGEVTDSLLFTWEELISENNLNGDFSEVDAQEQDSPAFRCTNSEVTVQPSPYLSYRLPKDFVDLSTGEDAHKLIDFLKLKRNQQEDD
UniProt Q5VV42: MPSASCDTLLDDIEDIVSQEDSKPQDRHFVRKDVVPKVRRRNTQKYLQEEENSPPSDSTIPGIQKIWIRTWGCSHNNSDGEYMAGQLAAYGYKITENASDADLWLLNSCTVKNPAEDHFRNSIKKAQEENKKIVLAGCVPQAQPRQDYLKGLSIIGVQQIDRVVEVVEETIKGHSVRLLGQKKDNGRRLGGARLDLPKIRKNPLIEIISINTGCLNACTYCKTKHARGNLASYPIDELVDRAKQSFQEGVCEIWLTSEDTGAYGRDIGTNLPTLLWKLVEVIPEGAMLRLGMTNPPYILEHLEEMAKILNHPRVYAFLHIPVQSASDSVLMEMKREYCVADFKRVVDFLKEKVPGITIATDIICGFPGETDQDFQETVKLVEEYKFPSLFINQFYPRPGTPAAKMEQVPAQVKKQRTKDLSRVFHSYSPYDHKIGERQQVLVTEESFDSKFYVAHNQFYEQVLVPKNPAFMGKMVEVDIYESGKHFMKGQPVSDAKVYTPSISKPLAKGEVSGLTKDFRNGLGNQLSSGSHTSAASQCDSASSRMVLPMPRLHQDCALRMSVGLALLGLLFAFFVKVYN
UniProt Q96SW2: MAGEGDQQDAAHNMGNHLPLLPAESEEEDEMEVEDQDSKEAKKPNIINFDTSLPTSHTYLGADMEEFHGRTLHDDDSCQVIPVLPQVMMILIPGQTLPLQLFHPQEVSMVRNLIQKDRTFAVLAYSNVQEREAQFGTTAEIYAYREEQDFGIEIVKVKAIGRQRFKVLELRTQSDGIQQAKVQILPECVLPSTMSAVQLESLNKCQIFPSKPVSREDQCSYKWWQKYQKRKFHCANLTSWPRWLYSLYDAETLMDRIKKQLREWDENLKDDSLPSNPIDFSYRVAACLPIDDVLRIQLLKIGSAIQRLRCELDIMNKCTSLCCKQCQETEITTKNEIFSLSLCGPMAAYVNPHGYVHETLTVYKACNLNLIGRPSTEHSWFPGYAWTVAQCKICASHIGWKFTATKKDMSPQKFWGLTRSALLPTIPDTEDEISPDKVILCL
UniProt Q96HQ2: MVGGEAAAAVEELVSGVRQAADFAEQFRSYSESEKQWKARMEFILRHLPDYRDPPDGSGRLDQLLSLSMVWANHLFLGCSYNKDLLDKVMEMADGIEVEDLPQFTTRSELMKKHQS
UniProt Q8N0X4: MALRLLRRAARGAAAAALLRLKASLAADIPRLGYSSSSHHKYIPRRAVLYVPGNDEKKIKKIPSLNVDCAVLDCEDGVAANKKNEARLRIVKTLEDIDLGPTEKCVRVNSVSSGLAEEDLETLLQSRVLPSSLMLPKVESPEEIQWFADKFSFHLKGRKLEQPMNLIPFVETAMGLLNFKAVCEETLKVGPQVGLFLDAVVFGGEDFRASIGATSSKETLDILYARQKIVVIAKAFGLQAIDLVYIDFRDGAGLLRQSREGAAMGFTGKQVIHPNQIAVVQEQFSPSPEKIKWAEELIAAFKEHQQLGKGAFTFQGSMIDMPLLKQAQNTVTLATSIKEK
UniProt P15954, whole entry: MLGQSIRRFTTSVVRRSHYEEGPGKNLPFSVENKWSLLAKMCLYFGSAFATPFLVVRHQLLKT
UniProt P83436: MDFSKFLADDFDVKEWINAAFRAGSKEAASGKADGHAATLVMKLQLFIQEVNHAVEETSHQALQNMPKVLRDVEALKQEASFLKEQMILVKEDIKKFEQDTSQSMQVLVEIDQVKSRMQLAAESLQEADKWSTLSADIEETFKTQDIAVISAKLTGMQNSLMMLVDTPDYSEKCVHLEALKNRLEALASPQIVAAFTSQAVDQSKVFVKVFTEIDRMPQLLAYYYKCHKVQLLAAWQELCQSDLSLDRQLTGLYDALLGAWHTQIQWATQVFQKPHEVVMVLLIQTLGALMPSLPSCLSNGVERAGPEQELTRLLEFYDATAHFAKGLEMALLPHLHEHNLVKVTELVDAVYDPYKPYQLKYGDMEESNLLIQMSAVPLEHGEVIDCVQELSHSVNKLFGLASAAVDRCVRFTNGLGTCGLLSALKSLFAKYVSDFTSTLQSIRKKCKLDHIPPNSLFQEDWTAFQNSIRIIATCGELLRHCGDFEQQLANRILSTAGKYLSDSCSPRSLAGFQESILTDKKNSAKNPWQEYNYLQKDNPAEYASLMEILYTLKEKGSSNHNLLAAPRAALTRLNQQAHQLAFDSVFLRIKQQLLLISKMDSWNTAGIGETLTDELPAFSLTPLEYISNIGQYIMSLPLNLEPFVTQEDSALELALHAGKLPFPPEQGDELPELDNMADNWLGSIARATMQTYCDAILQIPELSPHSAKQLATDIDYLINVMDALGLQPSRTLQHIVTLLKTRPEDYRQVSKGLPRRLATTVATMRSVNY
UniProt Q9BR76, whole entry: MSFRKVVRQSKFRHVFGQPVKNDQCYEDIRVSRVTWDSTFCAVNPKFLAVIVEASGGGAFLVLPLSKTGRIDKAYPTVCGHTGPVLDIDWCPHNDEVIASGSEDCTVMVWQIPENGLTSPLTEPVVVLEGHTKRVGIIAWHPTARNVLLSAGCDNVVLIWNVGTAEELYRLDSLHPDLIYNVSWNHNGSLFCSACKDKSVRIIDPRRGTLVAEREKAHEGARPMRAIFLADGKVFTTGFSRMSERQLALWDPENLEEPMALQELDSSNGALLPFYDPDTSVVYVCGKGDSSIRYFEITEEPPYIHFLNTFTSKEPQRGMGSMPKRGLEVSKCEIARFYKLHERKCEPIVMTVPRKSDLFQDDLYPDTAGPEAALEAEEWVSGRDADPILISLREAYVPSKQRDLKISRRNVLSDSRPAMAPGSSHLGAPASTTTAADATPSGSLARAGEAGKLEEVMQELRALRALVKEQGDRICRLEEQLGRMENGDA
UniProt Q9UDT6: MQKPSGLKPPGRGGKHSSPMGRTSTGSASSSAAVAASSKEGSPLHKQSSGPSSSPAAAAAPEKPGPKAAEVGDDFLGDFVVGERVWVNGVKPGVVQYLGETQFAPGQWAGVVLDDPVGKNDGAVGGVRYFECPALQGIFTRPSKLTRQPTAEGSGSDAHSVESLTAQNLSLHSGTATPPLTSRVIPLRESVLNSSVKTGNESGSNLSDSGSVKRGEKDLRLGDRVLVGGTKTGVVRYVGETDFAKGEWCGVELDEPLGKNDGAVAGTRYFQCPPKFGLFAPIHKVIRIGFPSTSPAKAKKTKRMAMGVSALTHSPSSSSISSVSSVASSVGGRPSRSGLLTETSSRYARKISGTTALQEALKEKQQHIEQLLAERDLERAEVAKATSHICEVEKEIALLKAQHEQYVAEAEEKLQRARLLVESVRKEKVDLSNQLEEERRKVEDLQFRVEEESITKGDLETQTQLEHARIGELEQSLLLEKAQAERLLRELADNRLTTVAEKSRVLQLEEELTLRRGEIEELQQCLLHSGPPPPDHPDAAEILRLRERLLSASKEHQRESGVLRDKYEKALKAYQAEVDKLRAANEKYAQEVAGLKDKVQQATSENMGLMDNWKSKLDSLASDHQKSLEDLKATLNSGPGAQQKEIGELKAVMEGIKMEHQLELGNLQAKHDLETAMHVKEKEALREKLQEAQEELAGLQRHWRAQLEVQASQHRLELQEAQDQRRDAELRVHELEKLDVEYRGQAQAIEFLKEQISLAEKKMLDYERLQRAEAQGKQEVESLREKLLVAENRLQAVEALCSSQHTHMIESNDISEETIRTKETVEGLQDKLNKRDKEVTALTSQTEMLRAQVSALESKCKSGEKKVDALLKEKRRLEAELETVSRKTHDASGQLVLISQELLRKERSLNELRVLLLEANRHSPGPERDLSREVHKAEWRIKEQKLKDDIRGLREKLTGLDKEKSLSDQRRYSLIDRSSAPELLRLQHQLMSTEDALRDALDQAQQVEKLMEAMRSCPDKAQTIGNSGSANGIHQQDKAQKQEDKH
UniProt Q9UFW8: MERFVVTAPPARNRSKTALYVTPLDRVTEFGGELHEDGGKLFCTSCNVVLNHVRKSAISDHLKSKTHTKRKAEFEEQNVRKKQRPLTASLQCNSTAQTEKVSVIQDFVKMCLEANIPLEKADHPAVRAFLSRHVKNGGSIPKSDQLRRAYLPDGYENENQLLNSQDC
UniProt P53567: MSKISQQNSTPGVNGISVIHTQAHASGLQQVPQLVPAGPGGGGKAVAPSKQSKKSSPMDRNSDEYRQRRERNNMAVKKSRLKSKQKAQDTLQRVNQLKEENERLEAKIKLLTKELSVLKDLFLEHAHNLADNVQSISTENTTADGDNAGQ
UniProt O95639, whole entry: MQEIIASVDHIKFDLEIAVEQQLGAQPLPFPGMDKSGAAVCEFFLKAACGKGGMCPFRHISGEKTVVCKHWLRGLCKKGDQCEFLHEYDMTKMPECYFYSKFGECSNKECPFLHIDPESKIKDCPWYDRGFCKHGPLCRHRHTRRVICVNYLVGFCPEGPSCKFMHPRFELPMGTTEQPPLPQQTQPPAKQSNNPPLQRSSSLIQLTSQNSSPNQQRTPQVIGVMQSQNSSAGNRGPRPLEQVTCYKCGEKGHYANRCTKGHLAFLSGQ
UniProt Q96MX0: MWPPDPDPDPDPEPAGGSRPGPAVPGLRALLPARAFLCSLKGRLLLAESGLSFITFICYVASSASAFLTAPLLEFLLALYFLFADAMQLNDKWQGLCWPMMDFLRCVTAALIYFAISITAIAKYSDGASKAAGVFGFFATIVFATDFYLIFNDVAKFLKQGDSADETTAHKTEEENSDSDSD
UniProt Q7KZN9: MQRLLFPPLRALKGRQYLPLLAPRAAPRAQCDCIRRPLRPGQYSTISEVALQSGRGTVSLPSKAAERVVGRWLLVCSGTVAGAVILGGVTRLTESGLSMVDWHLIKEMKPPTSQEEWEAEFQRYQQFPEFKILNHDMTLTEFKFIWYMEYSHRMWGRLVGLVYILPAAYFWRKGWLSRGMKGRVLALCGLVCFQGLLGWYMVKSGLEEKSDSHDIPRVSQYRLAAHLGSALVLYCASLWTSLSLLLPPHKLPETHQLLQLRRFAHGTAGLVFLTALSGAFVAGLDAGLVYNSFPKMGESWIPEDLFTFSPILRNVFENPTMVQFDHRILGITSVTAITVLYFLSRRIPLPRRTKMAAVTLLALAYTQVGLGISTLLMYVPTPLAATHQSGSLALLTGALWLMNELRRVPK
UniProt O95674: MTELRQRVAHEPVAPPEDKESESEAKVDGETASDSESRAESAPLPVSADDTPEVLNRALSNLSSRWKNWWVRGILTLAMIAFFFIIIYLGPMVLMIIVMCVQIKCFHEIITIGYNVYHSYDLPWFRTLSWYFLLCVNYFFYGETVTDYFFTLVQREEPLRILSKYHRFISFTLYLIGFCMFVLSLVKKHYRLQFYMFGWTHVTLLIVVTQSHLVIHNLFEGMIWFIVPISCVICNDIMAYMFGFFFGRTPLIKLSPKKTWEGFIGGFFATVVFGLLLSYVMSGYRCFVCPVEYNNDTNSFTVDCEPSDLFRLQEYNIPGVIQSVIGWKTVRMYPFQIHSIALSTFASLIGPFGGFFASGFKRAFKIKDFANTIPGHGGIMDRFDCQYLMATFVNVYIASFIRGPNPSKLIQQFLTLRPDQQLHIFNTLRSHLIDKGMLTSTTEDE
UniProt P09497: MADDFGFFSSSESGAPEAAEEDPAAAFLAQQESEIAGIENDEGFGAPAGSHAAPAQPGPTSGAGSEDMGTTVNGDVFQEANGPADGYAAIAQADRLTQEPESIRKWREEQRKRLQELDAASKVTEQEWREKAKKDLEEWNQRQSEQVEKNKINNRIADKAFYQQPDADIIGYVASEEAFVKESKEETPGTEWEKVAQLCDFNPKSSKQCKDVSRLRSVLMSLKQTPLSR
UniProt Q9H9Q2: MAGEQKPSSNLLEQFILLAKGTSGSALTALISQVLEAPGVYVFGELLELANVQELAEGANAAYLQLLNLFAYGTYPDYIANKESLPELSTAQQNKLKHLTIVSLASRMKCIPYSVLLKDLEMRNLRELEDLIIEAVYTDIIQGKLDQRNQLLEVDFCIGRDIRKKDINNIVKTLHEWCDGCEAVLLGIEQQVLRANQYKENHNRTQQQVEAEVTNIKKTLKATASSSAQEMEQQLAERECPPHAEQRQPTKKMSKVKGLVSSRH

compound: COc1ccc(Cn2ccc3cc(C)c(C(=O)NO)cc32)cc1; experiment: dose-dependent thermal stabilisation call (2D-TPP, DLPTP, 10% FDR) (binary (1 = stabilised)); higher = stabilised by the compound; details: system: HL-60 intact cells; concentration range 0.04-10 µM
Method: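 2D thermal proteome profiling in intact HL-60 cells treated with BRD-3811 (0, 0.04, 0.29, 2, 10 uM) for 90 min at 37 C, then heated 3 min at one of 12 temperatures (42-63.9 C). Soluble protein was quantified by TMT10 MS. The value is the DLPTP call of the paper: dose-dependent thermal stabilisation over all temperatures at 10% FDR (F-test of a dose-response against a flat model); one experiment, one call per tested protein.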

| Target | dose-dependent thermal stabilisation call |
| --- | --- |
| CPSF6 (UniProt Q16630) | inactive: 0 |
| COPE (UniProt O14579) | inactive: 0 |
| CIZ1 (UniProt Q9ULV3) | inactive: 0 |
| CFDP1 (UniProt Q9UEE9) | inactive: 0 |
| COQ7 (UniProt Q99807) | inactive: 0 |
| CDC123 (UniProt O75794) | inactive: 0 |
| CNOT1 (UniProt A5YKK6) | inactive: 0 |
| CKAP2 (UniProt Q8WWK9) | inactive: 0 |
| CDKAL1 (UniProt Q5VV42) | inactive: 0 |
| CRELD1 (UniProt Q96HD1) | inactive: 0 |
| CRBN (UniProt Q96SW2) | inactive: 0 |
| CD99 (UniProt P14209) | inactive: 0 |
| CNPY2 (UniProt Q9Y2B0) | inactive: 0 |
| CEP350 (UniProt Q5VT06) | inactive: 0 |
| CNOT2 (UniProt Q9NZN8) | inactive: 0 |
| CENPF (UniProt P49454) | inactive: 0 |
| CDKN2AIPNL (UniProt Q96HQ2) | inactive: 0 |
| CLYBL (UniProt Q8N0X4) | inactive: 0 |
| COX7C (UniProt P15954) | inactive: 0 |
| COG7 (UniProt P83436) | inactive: 0 |

Quoted from the results shown (nine entries):

| Target | dose-dependent thermal stabilisation call |
| --- | --- |
| COQ7 (UniProt Q99807) | inactive: 0 |
| CDC123 (UniProt O75794) | inactive: 0 |
| CNOT1 (UniProt A5YKK6) | inactive: 0 |
| CKAP2 (UniProt Q8WWK9) | inactive: 0 |
| CDKAL1 (UniProt Q5VV42) | inactive: 0 |
| CRELD1 (UniProt Q96HD1) | inactive: 0 |
| CRBN (UniProt Q96SW2) | inactive: 0 |
| CD99 (UniProt P14209) | inactive: 0 |
| CNPY2 (UniProt Q9Y2B0) | inactive: 0 |

Following part

| Target | dose-dependent thermal stabilisation call |
| --- | --- |
| CORO1B (UniProt Q9BR76) | inactive: 0 |
| COQ9 (UniProt O75208) | inactive: 0 |
| CDAN1 (UniProt Q8IWY9) | inactive: 0 |
| CLNS1A (UniProt P54105) | inactive: 0 |
| CLIP2 (UniProt Q9UDT6) | inactive: 0 |
| CGGBP1 (UniProt Q9UFW8) | inactive: 0 |
| CEBPG (UniProt P53567) | inactive: 0 |
| CPSF4 (UniProt O95639) | inactive: 0 |
| CLEC16A (UniProt Q2KHT3) | inactive: 0 |
| CPNE1 (UniProt Q99829) | inactive: 0 |
| CMTM3 (UniProt Q96MX0) | inactive: 0 |
| COX15 (UniProt Q7KZN9) | inactive: 0 |
| CDS2 (UniProt O95674) | inactive: 0 |
| CGREF1 (UniProt Q99674) | inactive: 0 |
| CLTB (UniProt P09497) | inactive: 0 |
| CPS1 (UniProt P31327) | inactive: 0 |
| CHMP1A (UniProt Q9HD42) | inactive: 0 |
| CHORDC1 (UniProt Q9UHD1) | inactive: 0 |
| COPS7B (UniProt Q9H9Q2) | inactive: 0 |
| CNNM3 (UniProt Q8NE01) | inactive: 0 |
